Experimental data taken from patent US20120101257A1 (UNIVERSITE DE MONTREAL, priority 2009, published 2012).

Assays:
[1] = general procedure: Fmoc solid-phase peptide synthesis; SynPhase lantern; conditions: whole synthesis, analytical RP-HPLC (UV 214), formic acid salt (crude: TFA salt)
[2] = general procedure: Fmoc solid-phase peptide synthesis; Rink amide resin; Rink amide MBHA resin; conditions: whole synthesis
[3] = general procedure: Fmoc solid-phase peptide synthesis; polystyrene Rink amide lantern; conditions: whole synthesis
[4] = general procedure: Fmoc solid-phase peptide synthesis; Rink amide MBHA resin; conditions: whole synthesis, analytical RP-HPLC (UV 214), formic acid salt (crude: TFA salt); run 1
[5] = general procedure: Fmoc solid-phase peptide synthesis; Rink-amide SynPhase lantern; conditions: whole synthesis, analytical RP-HPLC (UV 214), formic acid salt (crude: TFA salt); run 1
[6] = 214 nm, formic acid salt (crude: TFA salt)
[7] = formic acid salt (crude: TFA salt)
[8] = on resin and lantern loading, formic acid salt (crude: TFA salt)
[9] = 214 nm, formic acid salt (crude: TFA salt), cyclic, sequence written open
[10] = UV 214, formic acid salt (crude: TFA salt), cyclic, sequence written open
[11] = analytical RP-HPLC (UV 214), formic acid salt (crude: TFA salt), cyclic, sequence written open
[12] = formic acid salt (crude: TFA salt), cyclic, sequence written open

(R)-Agl-(R)-Agl-D-Thr-D-Val-D-Glu-D-Leu-D-Ala-NH2
crude HPLC purity [1]: 45% | final HPLC purity [2, 6]: >65% | difficulty met [2, 7]: The addition of a second (R)-Agl residue presented a more difficult challenge than the first | isolated yield [2, 8]: 5%

(R)-Agl-D-Tyr-D-Thr-(R)-Agl-D-Glu-D-Leu-D-Ala-NH2
crude HPLC purity [1]: 30% | final HPLC purity [2, 6]: >99% | difficulty met [2, 7]: The addition of a second (R)-Agl residue presented a more difficult challenge than the first | isolated yield [2, 8]: 5%

(R)-Agl-D-Tyr-D-Thr-D-Pro-D-Glu-D-Leu-D-Ala-NH2
crude HPLC purity [1]: 55% | final HPLC purity [2, 6]: >95% | isolated yield [2, 8]: 10%

(R)-Agl-D-Tyr-D-Thr-D-Val-(R)-Agl-D-Leu-D-Ala-NH2
crude HPLC purity ([3]; UV 214, formic acid salt (crude: TFA salt)): 30%

D-Arg-D-Tyr-(S)-Agl-D-Val-D-Glu-D-Leu-D-Ala-NH2
crude HPLC purity [4]: 33% | crude HPLC purity [5]: 32% | crude HPLC purity [2, 6]: 32% | final HPLC purity [2, 6]: >99% | isolated yield [2, 8]: 15%

D-Arg-D-Tyr-Agl(4-OH)-D-Val-D-Glu-D-Leu-D-Ala-NH2
crude HPLC purity ([3]; UV 214, TFA salt): 50%

His-D-Trp-(R)-Bgl-Trp-D-Phe-Lys-NH2
final HPLC purity [2, 9]: >99% | crude HPLC purity ([2]; 214 nm, formic acid salt (crude: TFA salt), cyclic, sequence written open, run 1): 22% | crude HPLC purity ([2]; 214 nm, formic acid salt (crude: TFA salt), cyclic, sequence written open, run 2): 21% | crude purity (method not given) ([2]; analytical RP-HPLC (UV 214), formic acid salt (crude: TFA salt), cyclic, sequence written open, run 1): <10% | crude purity (method not given) ([2]; analytical RP-HPLC (UV 214), formic acid salt (crude: TFA salt), cyclic, sequence written open, run 2): 21% | isolated yield ([2]; formic acid salt (crude: TFA salt), cyclic, sequence written open, run 1): 7.9% | isolated yield ([2]; formic acid salt (crude: TFA salt), cyclic, sequence written open, run 2): 8%

His-D-Trp-(S)-Agl-Trp-D-Phe-Lys-NH2
final HPLC purity [2, 10]: >99% | crude HPLC purity [2, 11]: 22% | isolated yield [2, 12]: 11%

His-D-Trp-(S)-Bgl-Trp-D-Phe-Lys-NH2
crude HPLC purity [2, 10]: 46% | final HPLC purity [2, 10]: >99% | isolated yield [2, 12]: 25%

His-D-Trp-Ala-(R)-Agl-D-Phe-Lys-NH2
final HPLC purity [2, 9]: >99% | crude HPLC purity [2, 11]: 61% | isolated yield [2, 12]: 11%

His-D-Trp-Ala-(R)-Bgl-D-Phe-Lys-NH2
crude HPLC purity [2, 9]: 40% | final HPLC purity [2, 9]: >99% | isolated yield [2, 12]: 5%

His-D-Trp-Ala-(S)-Agl-D-Phe-Lys-NH2
final HPLC purity [2, 10]: >99% | crude HPLC purity [2, 11]: 66% | isolated yield [2, 12]: 11%

His-D-Trp-Ala-(S)-Bgl-D-Phe-Lys-NH2
crude HPLC purity [2, 10]: 52% | final HPLC purity [2, 10]: >99% | isolated yield [2, 12]: 6%

His-D-Trp-Ala-Trp-(R)-Agl-Lys-NH2
final HPLC purity [2, 9]: >99% | crude HPLC purity [2, 11]: 55% | isolated yield [2, 12]: 7%

His-D-Trp-Ala-Trp-(R)-Bgl-Lys-NH2
crude HPLC purity [2, 9]: 60% | final HPLC purity [2, 9]: >99% | isolated yield [2, 12]: 3%

His-D-Trp-Ala-Trp-(S)-Agl-Lys-NH2
final HPLC purity [2, 10]: >99% | crude HPLC purity [2, 11]: 44% | isolated yield [2, 12]: 13%

His-D-Trp-Ala-Trp-(S)-Bgl-Lys-NH2
crude HPLC purity [2, 10]: 92% | final HPLC purity [2, 10]: >99% | isolated yield [2, 12]: 5%
